Data published in article PMC4613828 (PLoS Pathogens, 2015).

What was measured:
in vitro [1] = settings: African green monkey
in vitro [2] = settings: human
in vitro [3] = settings: human; remark: listed apart in the source

SMILES: CCON=Cc1ccc(OCCC(C)CCN2CCN(c3ccnc(N)c3)C2=O)cc1 (stereo not drawn) [NLD]
- CC50 (in vitro [1]): 17 ± 2 µM
- CC50 (in vitro [2]): 5 ± 1.1 µM
- CC50 (in vitro [3]): 20 ± 1 µM
